From publication PMC8033486 (Frontiers in Pharmacology, 2021) come the findings set out here.

The assay deals with SARS-CoV-2. As to the kind of experiment: microbe, parasite or virus in culture. The format is cell-based.

pIC50: −log10 of the molar value. Where two headings read alike, the source gives them in different places.

On to `CCS(=O)(=O)N1CC(CC#N)(n2cc(-c3ncnc4[nH]ccc34)cn2)C1` [Baricitinib], for which the “Inhibition of SARS-CoV-2-induced cytopathic effect, result in words” value (Vero E6) is “failed to protected Vero E6 cells from SARS-CoV-2 induced cytopathic effect”.

For the compound `CC(C)OC(=O)C(C)(C)Oc1ccc(C(=O)c2ccc(Cl)cc2)cc1` [Fenofibrate], the pIC50 is, setting by setting: (Severe acute respiratory syndrome coronavirus 2, Vero C1008, 72 h, read-out: IC50 (Mean +/- SD)) 4.70; (Severe acute respiratory syndrome coronavirus 2, Vero C1008, Vero E6, one representative experiment with two replicates, when combined, each drug at the same concentration, read-out: IC50 value of the particular graph) 4.70. For the same compound, the “Inhibition of SARS-CoV-2-induced cytopathic effect, result in words” value (Vero E6) is reported as “inhibited the cytopathic effect exerted by SARS-CoV-2 on Vero E6 at 20 µM”.
